Measurements published in the supplement of paper PMC10849652.
Some of the results follow. Residues, ends and D or L forms follow the SMILES beside them. *: point of attachment. Cbz = O=C(OCc1ccccc1)*

Amino acid sequences for entries named in this document (tags omitted). A change or cut given only in a name is not applied to a line headed by its entry.
UniProt Q9HD34: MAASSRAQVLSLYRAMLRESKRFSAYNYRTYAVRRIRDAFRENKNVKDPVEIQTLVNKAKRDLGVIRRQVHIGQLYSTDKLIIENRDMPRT
UniProt Q8ND56: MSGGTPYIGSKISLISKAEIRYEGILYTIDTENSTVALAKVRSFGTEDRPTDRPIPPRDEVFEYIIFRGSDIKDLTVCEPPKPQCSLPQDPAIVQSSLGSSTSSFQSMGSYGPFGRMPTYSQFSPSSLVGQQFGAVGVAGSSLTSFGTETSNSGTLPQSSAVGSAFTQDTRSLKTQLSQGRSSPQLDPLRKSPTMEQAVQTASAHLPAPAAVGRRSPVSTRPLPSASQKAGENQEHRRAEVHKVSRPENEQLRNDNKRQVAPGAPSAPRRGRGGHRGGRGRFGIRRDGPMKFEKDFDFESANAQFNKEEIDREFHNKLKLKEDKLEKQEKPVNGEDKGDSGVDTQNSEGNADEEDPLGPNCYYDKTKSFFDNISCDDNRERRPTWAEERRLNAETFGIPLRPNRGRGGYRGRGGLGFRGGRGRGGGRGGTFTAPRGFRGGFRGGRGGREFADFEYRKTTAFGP
UniProt P46821: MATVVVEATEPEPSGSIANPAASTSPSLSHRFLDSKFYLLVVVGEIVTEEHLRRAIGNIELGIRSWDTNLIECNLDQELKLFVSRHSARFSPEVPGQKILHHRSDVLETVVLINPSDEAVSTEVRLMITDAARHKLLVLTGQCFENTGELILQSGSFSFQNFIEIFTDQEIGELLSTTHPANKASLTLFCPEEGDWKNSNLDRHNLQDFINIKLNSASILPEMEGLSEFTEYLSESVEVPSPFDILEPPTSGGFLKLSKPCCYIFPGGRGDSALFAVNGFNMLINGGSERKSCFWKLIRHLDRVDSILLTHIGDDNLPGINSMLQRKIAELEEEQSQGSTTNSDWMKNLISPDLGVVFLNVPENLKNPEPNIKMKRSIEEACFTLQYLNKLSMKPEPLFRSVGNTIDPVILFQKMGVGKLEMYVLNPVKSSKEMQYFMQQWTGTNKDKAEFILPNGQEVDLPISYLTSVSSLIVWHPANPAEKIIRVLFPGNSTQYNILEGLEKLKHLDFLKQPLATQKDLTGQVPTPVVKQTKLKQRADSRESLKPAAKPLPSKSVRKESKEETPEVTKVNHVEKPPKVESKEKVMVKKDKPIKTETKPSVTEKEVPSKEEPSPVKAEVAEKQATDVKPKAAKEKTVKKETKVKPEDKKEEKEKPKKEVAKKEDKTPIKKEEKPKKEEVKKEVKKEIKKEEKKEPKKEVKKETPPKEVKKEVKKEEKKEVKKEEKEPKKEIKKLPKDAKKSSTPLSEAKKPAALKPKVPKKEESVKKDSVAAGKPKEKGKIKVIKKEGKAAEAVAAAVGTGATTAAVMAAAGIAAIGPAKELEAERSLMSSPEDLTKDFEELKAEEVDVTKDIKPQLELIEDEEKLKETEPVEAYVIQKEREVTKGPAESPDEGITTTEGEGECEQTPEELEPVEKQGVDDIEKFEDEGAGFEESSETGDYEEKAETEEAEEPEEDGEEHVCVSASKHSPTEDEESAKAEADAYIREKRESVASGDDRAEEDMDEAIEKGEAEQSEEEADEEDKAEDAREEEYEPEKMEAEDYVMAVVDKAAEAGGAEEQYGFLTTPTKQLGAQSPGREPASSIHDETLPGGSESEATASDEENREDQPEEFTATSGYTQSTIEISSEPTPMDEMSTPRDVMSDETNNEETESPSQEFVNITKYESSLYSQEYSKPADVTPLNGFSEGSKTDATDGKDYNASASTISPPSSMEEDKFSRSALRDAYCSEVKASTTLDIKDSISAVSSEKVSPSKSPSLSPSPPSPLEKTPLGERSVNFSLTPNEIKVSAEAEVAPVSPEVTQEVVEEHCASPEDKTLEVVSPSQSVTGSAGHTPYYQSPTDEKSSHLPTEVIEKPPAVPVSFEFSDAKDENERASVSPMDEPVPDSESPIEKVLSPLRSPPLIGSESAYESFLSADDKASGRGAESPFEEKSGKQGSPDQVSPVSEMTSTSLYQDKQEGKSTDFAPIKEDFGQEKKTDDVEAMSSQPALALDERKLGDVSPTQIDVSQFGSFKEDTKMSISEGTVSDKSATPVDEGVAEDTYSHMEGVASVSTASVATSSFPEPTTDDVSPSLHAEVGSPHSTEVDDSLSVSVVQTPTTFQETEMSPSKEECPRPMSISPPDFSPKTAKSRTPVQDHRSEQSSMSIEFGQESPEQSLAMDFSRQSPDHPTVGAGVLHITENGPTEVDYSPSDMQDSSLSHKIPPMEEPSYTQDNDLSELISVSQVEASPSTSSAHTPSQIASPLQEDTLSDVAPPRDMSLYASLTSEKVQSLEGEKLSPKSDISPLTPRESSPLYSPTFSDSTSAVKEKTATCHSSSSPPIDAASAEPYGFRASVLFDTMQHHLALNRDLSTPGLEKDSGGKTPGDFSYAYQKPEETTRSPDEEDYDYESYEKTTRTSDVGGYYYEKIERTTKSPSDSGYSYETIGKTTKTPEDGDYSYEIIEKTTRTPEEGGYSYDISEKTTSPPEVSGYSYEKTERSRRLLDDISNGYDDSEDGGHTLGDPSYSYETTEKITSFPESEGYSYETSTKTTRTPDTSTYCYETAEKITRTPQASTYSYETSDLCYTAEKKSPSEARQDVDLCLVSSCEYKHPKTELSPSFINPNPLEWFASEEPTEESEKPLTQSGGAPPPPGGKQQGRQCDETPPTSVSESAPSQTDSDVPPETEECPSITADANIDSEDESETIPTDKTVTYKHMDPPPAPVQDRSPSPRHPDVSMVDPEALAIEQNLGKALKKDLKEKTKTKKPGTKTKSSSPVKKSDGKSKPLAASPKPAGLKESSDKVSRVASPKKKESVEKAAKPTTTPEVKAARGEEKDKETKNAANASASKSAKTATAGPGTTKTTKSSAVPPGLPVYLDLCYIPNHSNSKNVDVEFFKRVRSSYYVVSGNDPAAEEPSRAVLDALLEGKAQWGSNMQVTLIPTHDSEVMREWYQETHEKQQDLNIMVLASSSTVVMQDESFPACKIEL
UniProt O60732: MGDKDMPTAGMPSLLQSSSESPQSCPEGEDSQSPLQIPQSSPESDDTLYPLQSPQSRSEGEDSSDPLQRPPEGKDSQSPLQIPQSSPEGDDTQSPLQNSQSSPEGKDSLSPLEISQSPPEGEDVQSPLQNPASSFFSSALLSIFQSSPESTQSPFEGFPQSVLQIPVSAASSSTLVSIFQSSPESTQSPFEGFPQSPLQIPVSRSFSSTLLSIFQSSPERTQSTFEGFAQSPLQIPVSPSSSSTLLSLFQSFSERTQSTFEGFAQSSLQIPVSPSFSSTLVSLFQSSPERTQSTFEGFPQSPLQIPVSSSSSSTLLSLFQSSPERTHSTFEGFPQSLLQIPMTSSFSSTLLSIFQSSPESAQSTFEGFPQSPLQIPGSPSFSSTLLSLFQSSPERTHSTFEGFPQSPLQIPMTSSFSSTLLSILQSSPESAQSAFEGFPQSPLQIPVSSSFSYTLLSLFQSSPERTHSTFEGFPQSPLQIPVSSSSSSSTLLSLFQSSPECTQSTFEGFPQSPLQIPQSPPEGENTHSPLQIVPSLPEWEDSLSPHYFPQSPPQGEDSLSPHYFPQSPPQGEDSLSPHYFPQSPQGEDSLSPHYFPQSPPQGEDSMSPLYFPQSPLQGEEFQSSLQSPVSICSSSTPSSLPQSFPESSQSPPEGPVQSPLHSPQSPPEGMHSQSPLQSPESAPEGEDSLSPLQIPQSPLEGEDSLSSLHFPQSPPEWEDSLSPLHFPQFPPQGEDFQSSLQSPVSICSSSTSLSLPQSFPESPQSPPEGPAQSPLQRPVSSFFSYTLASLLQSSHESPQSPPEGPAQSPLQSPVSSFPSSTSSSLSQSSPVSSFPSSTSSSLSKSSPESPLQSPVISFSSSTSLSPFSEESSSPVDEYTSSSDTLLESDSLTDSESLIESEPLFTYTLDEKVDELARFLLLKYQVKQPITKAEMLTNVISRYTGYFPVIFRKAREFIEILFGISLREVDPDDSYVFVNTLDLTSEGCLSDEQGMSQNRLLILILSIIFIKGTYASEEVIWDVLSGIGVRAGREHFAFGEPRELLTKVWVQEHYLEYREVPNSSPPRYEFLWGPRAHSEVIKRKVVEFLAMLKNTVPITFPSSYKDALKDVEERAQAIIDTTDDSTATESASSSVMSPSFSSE
UniProt P49641: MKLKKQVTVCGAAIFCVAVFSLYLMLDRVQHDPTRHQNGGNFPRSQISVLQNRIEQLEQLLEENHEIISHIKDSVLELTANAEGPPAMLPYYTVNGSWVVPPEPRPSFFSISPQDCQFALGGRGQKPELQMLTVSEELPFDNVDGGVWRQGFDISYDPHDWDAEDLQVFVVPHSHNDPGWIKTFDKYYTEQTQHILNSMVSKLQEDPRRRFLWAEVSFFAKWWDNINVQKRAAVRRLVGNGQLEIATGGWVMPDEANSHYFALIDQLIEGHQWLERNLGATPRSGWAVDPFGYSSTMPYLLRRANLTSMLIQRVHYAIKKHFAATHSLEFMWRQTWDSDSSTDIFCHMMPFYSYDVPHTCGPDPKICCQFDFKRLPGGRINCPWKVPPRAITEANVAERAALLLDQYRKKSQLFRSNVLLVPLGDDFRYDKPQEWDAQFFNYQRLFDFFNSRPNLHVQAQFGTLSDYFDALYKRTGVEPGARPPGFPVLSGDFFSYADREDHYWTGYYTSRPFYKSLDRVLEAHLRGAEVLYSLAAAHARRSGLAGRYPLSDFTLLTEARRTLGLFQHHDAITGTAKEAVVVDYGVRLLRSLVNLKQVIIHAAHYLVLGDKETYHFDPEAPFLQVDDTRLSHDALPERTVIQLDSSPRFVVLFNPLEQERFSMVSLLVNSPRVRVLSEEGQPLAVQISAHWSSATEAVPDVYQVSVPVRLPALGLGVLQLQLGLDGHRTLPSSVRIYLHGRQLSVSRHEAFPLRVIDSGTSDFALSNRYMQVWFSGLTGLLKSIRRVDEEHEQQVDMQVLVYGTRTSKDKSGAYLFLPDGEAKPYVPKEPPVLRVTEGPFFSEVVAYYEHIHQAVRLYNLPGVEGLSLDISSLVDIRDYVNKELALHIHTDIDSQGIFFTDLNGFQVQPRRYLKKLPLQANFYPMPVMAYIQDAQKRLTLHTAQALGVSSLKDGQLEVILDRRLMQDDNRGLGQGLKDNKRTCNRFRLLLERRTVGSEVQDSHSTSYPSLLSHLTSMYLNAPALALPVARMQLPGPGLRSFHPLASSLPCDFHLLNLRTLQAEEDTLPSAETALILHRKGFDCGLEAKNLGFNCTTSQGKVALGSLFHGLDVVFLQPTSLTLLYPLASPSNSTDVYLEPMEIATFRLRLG
UniProt Q9NU23: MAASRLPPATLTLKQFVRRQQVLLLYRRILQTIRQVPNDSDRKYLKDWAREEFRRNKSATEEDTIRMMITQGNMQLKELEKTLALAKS
UniProt P62312: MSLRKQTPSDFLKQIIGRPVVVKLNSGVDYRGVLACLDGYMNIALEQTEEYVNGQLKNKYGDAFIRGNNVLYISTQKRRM
UniProt Q8IV50: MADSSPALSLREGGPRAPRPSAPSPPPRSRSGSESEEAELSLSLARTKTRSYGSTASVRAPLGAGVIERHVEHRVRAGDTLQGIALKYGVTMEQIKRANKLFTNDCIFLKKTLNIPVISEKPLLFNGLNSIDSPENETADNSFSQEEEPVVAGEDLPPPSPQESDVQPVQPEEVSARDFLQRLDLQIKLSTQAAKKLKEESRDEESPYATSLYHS
UniProt Q9Y4Z0: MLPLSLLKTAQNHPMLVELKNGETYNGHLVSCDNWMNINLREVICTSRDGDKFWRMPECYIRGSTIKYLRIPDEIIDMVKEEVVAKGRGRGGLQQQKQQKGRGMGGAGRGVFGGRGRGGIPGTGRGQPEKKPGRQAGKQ
UniProt Q9Y333: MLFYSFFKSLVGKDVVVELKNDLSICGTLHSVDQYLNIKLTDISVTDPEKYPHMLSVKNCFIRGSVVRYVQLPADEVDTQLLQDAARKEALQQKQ
UniProt P33908: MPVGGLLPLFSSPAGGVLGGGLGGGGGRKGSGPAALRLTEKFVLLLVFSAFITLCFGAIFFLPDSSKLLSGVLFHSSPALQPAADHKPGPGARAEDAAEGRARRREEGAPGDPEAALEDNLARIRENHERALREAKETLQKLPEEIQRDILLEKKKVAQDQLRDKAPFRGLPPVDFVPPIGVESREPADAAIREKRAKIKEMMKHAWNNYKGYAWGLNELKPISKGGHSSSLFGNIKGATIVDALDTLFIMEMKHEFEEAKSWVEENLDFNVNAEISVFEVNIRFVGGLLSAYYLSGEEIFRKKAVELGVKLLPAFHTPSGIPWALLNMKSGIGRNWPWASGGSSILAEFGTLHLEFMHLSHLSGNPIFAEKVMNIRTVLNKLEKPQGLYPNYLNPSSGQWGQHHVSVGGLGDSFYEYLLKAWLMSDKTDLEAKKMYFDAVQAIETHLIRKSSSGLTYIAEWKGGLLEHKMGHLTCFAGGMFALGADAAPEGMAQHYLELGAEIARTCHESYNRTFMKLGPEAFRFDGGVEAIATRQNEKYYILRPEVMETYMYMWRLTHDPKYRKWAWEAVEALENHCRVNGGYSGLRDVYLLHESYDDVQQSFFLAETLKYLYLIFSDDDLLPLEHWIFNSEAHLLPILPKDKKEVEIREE

How the values were obtained:
Test in all cases: log2 fold change, soluble protein after heating vs DMSO (PISA); higher = thermal stabilisation; K562 cells, 10 uM, 30 min; active = over 0.2 and 3.5 SD of the protein, either way, in both replicates (recomputed)
IRAK-1-4 Inhibitor I = compound: C1COCCN1CCN2C3=CC=CC=C3N=C2NC(=O)C4=CC(=CC=C4)[N+](=O)[O-] [IRAK-1-4 Inhibitor I]
How it was run: (§1)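 Values are thermal stability changes relative to control samples and are taken from duplicates. They are stated as log2 fold changes. Before quantification by TMTpro 16plex LC-MS/MS with equalised channel sums, K562 cells at 2×10^6 cells/mL were treated with 10 μM compound for 30 min, heated in aliquots for 3 min across 48°C-58°C, pooled, extracted in PBS with 0.5% NP-40 at 4°C, and centrifuged at 21,000xg for 90 min to give the soluble supernatant.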

ibrutinib = compound: C=CC(=O)N1CCC[C@@H](n2nc(-c3ccc(Oc4ccccc4)cc3)c3c(N)ncnc32)C1 [ibrutinib]
How it was run: as §1

[1] = compound: CC(=O)c1cnc2ccc(-c3cc(Cl)c(O)c(Cl)c3)nc2c1N[C@H]1CC[C@H](CN(C)C)CC1
How it was run: as §1

ralimetinib = compound: CC(C)(C)Cn1c(N)nc2ccc(-c3[nH]c(C(C)(C)C)nc3-c3ccc(F)cc3)nc21 [ralimetinib]
How it was run: as §1

[2] = compound: CC(C)(O)CC(=O)NCCn1ccc2ncnc(Nc3ccc(Oc4cccc(C(F)(F)F)c4)c(Cl)c3)c21
How it was run: as §1

[3] = compound: CC(C)C1=C2N=C(C=C(N2N=C1)NCC3=CC=CC=C3)NCCCCCCN
How it was run: as §1

[4] = compound: CC(C)C[C@@H](C=O)NC(=O)[C@H](CC(C)C)NC(=O)[C@H](CC(C)C)NC(=O)OCc1ccccc1
How it was run: as §1

pinometostat = compound: CC(C)N(C[C@H]1O[C@@H](n2cnc3c(N)ncnc32)[C@H](O)[C@@H]1O)[C@H]1C[C@@H](CCc2nc3cc(C(C)(C)C)ccc3[nH]2)C1 [pinometostat]
How it was run: as §1

[5] = compound: CC1=C(C(CC(=O)N1)C2=CC=C(C=C2)C(F)(F)F)C(=O)NC3=C(C=C4C(=C3)C=NN4)F
How it was run: as §1

[6] = compound: CC1=C(C2=C(C=C1)C(=O)C3=CC=CC=C3N2CCCN)C
How it was run: as §1

[7] = compound: CC1=C(C=C(C=C1)NC(=O)C2=CC(=CC=C2)C(C)(C)C#N)NC3=CC4=C(C=C3)N=CN(C4=O)C
How it was run: as §1

[8] = compound: CC1=C(C=C(C=C1)NC(=O)C2=CC(=CC=C2)N(C)C)NC(=O)C3=CC=C(C=C3)O
How it was run: as §1

[9] = compound: CC1=CC=C(C=C1)SC2=C3C=C(SC3=CN=C2)C(=O)N
How it was run: as §1

[10] = compound: CC1=NC(=CC=C1)C2=C(N=C(N2)C(C)(C)C)C3=CC4=NC=CN=C4C=C3
How it was run: as §1

Nexturastat A = compound: CCCCN(Cc1ccc(C(=O)NO)cc1)C(=O)Nc1ccccc1 [Nexturastat A]
How it was run: as §1

vemurafenib = compound: CCCS(=O)(=O)Nc1ccc(F)c(C(=O)c2c[nH]c3ncc(-c4ccc(Cl)cc4)cc23)c1F [vemurafenib]
How it was run: as §1

[11] = compound: CCCS(=O)(=O)Nc1ccc(F)c(C(=O)c2c[nH]c3ncc(Cl)cc23)c1F
How it was run: as §1

[12] = compound: CCCc1cc(C)[nH]c(=O)c1CNC(=O)c1cc(-c2ccnc(N3CCN(C)CC3)c2)cc2c1cnn2C(C)C
How it was run: as §1

givinostat = compound: CCN(CC)Cc1ccc2cc(COC(=O)Nc3ccc(C(=O)NO)cc3)ccc2c1 [givinostat]
How it was run: as §1

barasertib = compound: CCN(CCCOc1ccc2c(Nc3cc(CC(=O)Nc4cccc(F)c4)[nH]n3)ncnc2c1)CCOP(=O)(O)O [barasertib]
How it was run: as §1

Measured: log2 fold change

LYPLAL1 (UniProt Q5VWZ2)
inactive: IRAK-1-4 Inhibitor I 0.051 | ibrutinib -0.025 | [1] -0.006 | ralimetinib 0.007 | [2] -0.052 | [3] -0.016 | [4] -0.038 | pinometostat -0.003 | [5] -0.011 | [6] 0.041 | [7] -0.007 | [8] -0.019 | [9] -0.016 | [10] 0.019 | Nexturastat A 0.003 | vemurafenib 0.013 | [11] -0.002 | [12] -0.014 | givinostat -0.006 | barasertib 0.023

LYRM4 (UniProt Q9HD34)
inactive: IRAK-1-4 Inhibitor I 0.031 | ibrutinib 0.007 | [1] -0.022 | ralimetinib -0.04 | [2] -0.091 | [3] 0.008 | [4] -0.001 | pinometostat -0.051 | [5] -0.021 | [6] 0.013 | [7] 0.014 | [8] -0.012 | [9] 0.062 | [10] 0.008 | Nexturastat A -0.01 | vemurafenib -0.014 | [11] 0.032 | [12] 0.06 | givinostat 0.03 | barasertib 0.02

LSM14A isoform 2 (UniProt Q8ND56)
inactive: IRAK-1-4 Inhibitor I -0.046 | ibrutinib 0.021 | [1] 0.009 | ralimetinib -0.017 | [2] 0.028 | [3] -0.016 | [4] 0.062 | pinometostat 0.09 | [5] 0.011 | [6] 0.167 | [7] -0.017 | [8] -0.04 | [9] 0.04 | [10] 0.05 | Nexturastat A 0.016 | vemurafenib -0.024 | [11] 0.005 | [12] -0.015 | givinostat 0.052 | barasertib 0.024

Quoted from the entries so far (2 entries):
LYRM4 (UniProt Q9HD34)
inactive: IRAK-1-4 Inhibitor I 0.031 | ibrutinib 0.007 | [1] -0.022 | ralimetinib -0.04 | [2] -0.091 | [3] 0.008 | [4] -0.001 | pinometostat -0.051 | [5] -0.021 | [6] 0.013 | [7] 0.014 | [8] -0.012 | [9] 0.062 | [10] 0.008 | Nexturastat A -0.01 | vemurafenib -0.014 | [11] 0.032 | [12] 0.06 | givinostat 0.03 | barasertib 0.02

LSM14A isoform 2 (UniProt Q8ND56)
inactive: IRAK-1-4 Inhibitor I -0.046 | ibrutinib 0.021 | [1] 0.009 | ralimetinib -0.017 | [2] 0.028 | [3] -0.016 | [4] 0.062 | pinometostat 0.09 | [5] 0.011 | [6] 0.167 | [7] -0.017 | [8] -0.04 | [9] 0.04 | [10] 0.05 | Nexturastat A 0.016 | vemurafenib -0.024 | [11] 0.005 | [12] -0.015 | givinostat 0.052 | barasertib 0.024

Next part:

MAP1B (UniProt P46821)
inactive: IRAK-1-4 Inhibitor I -0.035 | ibrutinib -0.01 | [1] -0.012 | ralimetinib 0.04 | [2] 0.044 | [3] 0.04 | [4] 0.004 | pinometostat 0.025 | [5] 0 | [6] 0.019 | [7] -0.037 | [8] -0.012 | [9] -0.017 | [10] -0.032 | Nexturastat A 0.052 | vemurafenib -0.027 | [11] -0.032 | [12] 0.002 | givinostat 0.003 | barasertib -0.033

MAN2A1 (UniProt Q16706)
inactive: IRAK-1-4 Inhibitor I 0.018 | ibrutinib 0.012 | [1] -0.015 | ralimetinib -0.032 | [2] 0.056 | [3] 0.005 | [4] 0.002 | pinometostat -0.029 | [5] 0 | [6] -0.016 | [7] 0.006 | [8] 0.009 | [9] -0.034 | [10] -0.024 | Nexturastat A -0.035 | vemurafenib -0.01 | [11] -0.01 | [12] 0.001 | givinostat -0.024 | barasertib 0.009

MAGEC1 (UniProt O60732)
inactive: IRAK-1-4 Inhibitor I -0.106 | ibrutinib -0.018 | [1] 0.17 | ralimetinib 0.085 | [2] 0.037 | [3] -0.26 | [4] 0.042 | pinometostat 0.245 | [5] -0.073 | [6] -0.039 | [7] -0.044 | [8] -0.047 | [9] -0.062 | [10] -0.061 | Nexturastat A 0.26 | vemurafenib 0.036 | [11] 0.021 | [12] 0.09 | givinostat 0.052 | barasertib 0.022

MALSU1 (UniProt Q96EH3)
inactive: IRAK-1-4 Inhibitor I 0.005 | ibrutinib -0.006 | [1] -0.038 | ralimetinib -0.001 | [2] 0.006 | [3] -0.05 | [4] 0.073 | pinometostat -0.078 | [5] 0.001 | [6] -0.084 | [7] -0.02 | [8] 0.076 | [9] 0.014 | [10] 0.053 | Nexturastat A 0.019 | vemurafenib -0.014 | [11] -0.018 | [12] -0.034 | givinostat -0.052 | barasertib -0.049

MAN2A2 (UniProt P49641)
inactive: IRAK-1-4 Inhibitor I -0.027 | ibrutinib -0.017 | [1] -0.012 | ralimetinib 0.059 | [2] -0.009 | [3] 0.031 | [4] 0.013 | pinometostat 0.01 | [5] -0.024 | [6] 0.01 | [7] 0.034 | [8] -0.044 | [9] -0.006 | [10] 0.049 | Nexturastat A -0.016 | vemurafenib -0.041 | [11] -0.047 | [12] -0.056 | givinostat -0.024 | barasertib -0.011

LYRM2 (UniProt Q9NU23)
inactive: IRAK-1-4 Inhibitor I -0.001 | ibrutinib 0.01 | [1] -0.026 | ralimetinib -0.034 | [2] -0.024 | [3] -0.015 | [4] -0.022 | pinometostat -0.065 | [5] -0.017 | [6] 0 | [7] 0.034 | [8] -0.017 | [9] 0.036 | [10] 0.052 | Nexturastat A -0.007 | vemurafenib 0.09 | [11] -0.149 | [12] -0.078 | givinostat -0.008 | barasertib -0.016

LSM6 (UniProt P62312)
inactive: IRAK-1-4 Inhibitor I 0.049 | ibrutinib 0.037 | [1] 0.058 | ralimetinib 0.017 | [2] 0.02 | [3] 0.099 | [4] -0.016 | pinometostat -0.068 | [5] 0 | [6] 0.019 | [7] -0.033 | [8] -0.013 | [9] 0.009 | [10] -0.001 | Nexturastat A -0.07 | vemurafenib 0.046 | [11] 0.009 | [12] -0.055 | givinostat 0.005 | barasertib -0.008

LYSMD2 (UniProt Q8IV50)
inactive: IRAK-1-4 Inhibitor I 0.032 | ibrutinib -0.011 | [1] -0.086 | ralimetinib -0.048 | [2] 0.039 | [3] 0.042 | [4] 0.023 | pinometostat -0.045 | [5] 0.023 | [6] -0.035 | [7] -0.077 | [8] 0.006 | [9] -0.02 | [10] -0.02 | Nexturastat A -0.012 | vemurafenib -0.033 | [11] -0.027 | [12] -0.055 | givinostat -0.047 | barasertib 0.026

LSM4 (UniProt Q9Y4Z0)
inactive: IRAK-1-4 Inhibitor I 0 | ibrutinib 0.029 | [1] 0.048 | ralimetinib -0.037 | [2] -0.01 | [3] 0.107 | [4] 0.009 | pinometostat -0.056 | [5] 0.008 | [6] -0.01 | [7] 0.032 | [8] 0.011 | [9] 0.133 | [10] 0.005 | Nexturastat A -0.063 | vemurafenib 0.044 | [11] -0.03 | [12] -0.047 | givinostat -0.013 | barasertib -0.015

LSM2 (UniProt Q9Y333)
inactive: IRAK-1-4 Inhibitor I 0.017 | ibrutinib 0.01 | [1] -0.012 | ralimetinib -0.047 | [2] 0.003 | [3] 0.063 | [4] -0.049 | pinometostat -0.056 | [5] 0.007 | [6] 0.023 | [7] -0.02 | [8] 0.026 | [9] 0.033 | [10] 0.061 | Nexturastat A -0.059 | vemurafenib 0.027 | [11] 0.012 | [12] -0.107 | givinostat 0.016 | barasertib -0.011

MACF1 (UniProt H3BQK9)
inactive: IRAK-1-4 Inhibitor I -0.182 | ibrutinib -0.029 | [1] -0.115 | ralimetinib 0 | [2] -0.073 | [3] -0.23 | [4] 0.085 | pinometostat 0.04 | [5] -0.017 | [6] 0.076 | [7] 0.02 | [8] -0.052 | [9] -0.017 | [10] 0.012 | Nexturastat A 0.131 | vemurafenib -0.171 | [11] 0.093 | [12] 0.153 | givinostat 0.066 | barasertib -0.016

MAN1A1 (UniProt P33908)
inactive: IRAK-1-4 Inhibitor I 0.001 | ibrutinib -0.004 | [1] 0.03 | ralimetinib -0.034 | [2] 0.044 | [3] 0.093 | [4] -0.026 | pinometostat -0.001 | [5] -0.016 | [6] -0.005 | [7] -0.024 | [8] -0.013 | [9] -0.009 | [10] -0.038 | Nexturastat A -0.009 | vemurafenib -0.076 | [11] -0.01 | [12] -0.003 | givinostat 0.026 | barasertib 0.009

MAD2L1BP isoform 3 (UniProt Q15013)
inactive: IRAK-1-4 Inhibitor I 0.02 | ibrutinib -0.013 | [1] -0.026 | ralimetinib -0.02 | [2] -0.123 | [3] 0.008 | [4] -0.011 | pinometostat -0.027 | [5] 0.009 | [6] -0.135 | [7] -0.038 | [8] 0.02 | [9] -0.007 | [10] 0.018 | Nexturastat A -0.073 | vemurafenib -0.025 | [11] 0.01 | [12] -0.03 | givinostat 0.019 | barasertib 0.01
